Results published in the supplement of paper PMC10849652.
The other results are listed elsewhere or left out.

Amino acid sequences for entries named in this document (tags omitted). A change or cut given only in a name is not applied to a line headed by its entry.
UniProt Q9NWZ3, whole entry, looked up: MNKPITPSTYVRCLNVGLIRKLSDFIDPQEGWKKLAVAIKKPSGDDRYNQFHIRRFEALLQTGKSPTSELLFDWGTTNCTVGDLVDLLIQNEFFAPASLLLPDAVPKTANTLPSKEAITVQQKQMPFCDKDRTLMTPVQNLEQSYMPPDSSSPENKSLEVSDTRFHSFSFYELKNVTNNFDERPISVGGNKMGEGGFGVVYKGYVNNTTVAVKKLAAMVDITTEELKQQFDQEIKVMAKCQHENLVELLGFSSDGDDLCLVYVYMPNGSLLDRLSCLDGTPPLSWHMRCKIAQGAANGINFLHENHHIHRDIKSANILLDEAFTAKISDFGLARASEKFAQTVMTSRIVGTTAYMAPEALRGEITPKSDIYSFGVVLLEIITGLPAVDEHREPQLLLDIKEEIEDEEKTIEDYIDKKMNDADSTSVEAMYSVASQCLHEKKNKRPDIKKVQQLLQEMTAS
UniProt Q8N5M9: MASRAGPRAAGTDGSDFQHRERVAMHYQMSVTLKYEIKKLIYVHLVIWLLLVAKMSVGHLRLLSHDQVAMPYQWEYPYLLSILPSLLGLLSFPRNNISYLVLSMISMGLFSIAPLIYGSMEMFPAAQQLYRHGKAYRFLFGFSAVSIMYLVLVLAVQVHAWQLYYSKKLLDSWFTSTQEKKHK
UniProt Q7L273: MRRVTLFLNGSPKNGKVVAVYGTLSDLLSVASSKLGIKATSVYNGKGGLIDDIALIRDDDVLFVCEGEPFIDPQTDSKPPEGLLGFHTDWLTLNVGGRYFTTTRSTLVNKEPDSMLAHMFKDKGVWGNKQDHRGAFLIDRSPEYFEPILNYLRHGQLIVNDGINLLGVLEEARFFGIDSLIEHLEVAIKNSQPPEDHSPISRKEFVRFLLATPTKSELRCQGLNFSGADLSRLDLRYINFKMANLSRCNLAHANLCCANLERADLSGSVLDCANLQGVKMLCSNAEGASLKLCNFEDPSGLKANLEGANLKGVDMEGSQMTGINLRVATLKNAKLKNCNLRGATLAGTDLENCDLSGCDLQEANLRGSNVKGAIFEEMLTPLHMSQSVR
UniProt Q9H910: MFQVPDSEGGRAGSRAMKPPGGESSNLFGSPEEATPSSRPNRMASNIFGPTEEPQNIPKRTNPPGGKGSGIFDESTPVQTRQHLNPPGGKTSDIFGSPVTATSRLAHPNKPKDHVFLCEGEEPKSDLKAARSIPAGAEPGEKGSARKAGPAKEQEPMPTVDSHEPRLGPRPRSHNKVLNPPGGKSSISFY
UniProt Q9NZM3: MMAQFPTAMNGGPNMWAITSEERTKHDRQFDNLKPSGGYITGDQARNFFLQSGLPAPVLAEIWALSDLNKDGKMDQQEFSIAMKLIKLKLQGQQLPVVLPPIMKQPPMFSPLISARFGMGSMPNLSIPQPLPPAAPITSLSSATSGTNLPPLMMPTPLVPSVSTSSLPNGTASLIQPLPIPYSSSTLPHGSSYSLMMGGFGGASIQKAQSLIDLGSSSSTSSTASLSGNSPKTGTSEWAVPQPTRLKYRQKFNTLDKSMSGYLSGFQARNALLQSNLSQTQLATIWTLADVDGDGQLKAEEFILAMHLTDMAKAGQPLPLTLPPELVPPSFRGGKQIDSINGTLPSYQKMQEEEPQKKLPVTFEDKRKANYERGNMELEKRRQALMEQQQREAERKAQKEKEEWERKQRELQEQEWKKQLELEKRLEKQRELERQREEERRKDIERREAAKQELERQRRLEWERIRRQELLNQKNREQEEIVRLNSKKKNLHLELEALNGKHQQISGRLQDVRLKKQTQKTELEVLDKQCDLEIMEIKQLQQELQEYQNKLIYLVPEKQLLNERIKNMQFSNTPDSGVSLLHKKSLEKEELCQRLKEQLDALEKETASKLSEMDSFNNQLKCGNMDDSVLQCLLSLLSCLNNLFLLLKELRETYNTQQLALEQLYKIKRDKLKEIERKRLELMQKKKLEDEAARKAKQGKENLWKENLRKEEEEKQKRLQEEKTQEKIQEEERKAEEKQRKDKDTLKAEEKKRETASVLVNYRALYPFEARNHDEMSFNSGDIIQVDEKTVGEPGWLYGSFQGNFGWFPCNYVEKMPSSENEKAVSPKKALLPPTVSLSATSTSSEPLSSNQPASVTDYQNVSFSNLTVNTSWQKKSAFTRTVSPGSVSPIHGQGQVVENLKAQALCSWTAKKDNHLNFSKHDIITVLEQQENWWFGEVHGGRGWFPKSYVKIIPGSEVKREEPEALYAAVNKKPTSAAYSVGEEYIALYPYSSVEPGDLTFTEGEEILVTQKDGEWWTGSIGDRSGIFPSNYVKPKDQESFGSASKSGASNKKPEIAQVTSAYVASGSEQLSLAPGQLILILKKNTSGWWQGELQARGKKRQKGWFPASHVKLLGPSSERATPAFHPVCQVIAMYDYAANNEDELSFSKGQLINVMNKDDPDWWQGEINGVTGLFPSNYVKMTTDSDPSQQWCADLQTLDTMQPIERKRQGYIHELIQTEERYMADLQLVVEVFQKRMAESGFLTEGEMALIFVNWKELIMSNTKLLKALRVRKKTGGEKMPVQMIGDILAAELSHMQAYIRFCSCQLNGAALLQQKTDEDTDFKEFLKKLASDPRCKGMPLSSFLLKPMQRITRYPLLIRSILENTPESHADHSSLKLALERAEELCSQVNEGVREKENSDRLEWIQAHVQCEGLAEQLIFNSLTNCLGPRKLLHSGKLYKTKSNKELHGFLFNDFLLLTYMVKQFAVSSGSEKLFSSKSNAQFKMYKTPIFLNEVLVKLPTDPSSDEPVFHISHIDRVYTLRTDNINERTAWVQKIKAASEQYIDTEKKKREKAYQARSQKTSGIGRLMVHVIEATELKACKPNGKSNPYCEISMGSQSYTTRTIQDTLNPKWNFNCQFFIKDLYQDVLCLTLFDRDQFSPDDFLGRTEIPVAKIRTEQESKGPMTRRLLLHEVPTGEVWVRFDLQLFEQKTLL
UniProt Q9H0H0, whole entry, looked up: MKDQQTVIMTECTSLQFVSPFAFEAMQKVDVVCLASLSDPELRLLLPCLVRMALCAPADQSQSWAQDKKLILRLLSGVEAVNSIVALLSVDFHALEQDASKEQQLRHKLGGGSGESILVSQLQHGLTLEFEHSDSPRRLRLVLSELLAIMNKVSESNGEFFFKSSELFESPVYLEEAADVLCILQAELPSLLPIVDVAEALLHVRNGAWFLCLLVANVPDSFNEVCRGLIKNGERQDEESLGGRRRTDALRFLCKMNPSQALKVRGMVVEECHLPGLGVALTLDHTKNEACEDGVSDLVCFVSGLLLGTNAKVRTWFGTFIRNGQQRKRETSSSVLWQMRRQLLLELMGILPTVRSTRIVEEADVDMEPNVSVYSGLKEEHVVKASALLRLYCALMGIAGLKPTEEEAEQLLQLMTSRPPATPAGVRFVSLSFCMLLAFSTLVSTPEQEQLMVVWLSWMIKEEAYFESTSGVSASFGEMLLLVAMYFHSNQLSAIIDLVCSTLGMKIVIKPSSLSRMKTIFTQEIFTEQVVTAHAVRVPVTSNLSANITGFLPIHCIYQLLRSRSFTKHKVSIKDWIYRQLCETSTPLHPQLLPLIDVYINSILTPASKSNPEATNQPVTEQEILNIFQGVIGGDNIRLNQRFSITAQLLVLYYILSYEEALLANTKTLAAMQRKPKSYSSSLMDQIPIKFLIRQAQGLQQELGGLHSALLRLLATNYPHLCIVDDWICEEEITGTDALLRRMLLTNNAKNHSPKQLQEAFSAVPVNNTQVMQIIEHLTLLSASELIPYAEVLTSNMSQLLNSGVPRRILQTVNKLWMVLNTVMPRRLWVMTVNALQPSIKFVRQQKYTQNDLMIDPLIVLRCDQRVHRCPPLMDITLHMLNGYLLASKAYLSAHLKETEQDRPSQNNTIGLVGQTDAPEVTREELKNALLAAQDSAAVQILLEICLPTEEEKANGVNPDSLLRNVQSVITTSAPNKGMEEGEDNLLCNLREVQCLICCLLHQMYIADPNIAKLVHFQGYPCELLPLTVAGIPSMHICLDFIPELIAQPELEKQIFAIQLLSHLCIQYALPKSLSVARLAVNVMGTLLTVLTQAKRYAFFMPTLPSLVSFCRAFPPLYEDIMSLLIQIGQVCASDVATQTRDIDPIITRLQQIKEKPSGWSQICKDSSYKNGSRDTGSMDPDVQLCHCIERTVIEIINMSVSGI
UniProt Q9H7Z6: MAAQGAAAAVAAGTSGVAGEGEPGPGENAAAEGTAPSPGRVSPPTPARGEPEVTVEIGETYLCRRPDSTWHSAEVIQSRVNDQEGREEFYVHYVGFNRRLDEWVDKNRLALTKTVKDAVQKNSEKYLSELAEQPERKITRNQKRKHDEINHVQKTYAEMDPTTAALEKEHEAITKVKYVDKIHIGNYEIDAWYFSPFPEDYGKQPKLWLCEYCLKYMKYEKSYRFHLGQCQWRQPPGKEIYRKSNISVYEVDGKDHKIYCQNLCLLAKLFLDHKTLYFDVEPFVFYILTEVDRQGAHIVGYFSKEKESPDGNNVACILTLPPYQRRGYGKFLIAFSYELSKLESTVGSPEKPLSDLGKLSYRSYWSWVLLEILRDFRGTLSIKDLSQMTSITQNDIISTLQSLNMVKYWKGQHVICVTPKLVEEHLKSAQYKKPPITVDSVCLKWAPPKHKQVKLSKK
UniProt Q9Y6Y0: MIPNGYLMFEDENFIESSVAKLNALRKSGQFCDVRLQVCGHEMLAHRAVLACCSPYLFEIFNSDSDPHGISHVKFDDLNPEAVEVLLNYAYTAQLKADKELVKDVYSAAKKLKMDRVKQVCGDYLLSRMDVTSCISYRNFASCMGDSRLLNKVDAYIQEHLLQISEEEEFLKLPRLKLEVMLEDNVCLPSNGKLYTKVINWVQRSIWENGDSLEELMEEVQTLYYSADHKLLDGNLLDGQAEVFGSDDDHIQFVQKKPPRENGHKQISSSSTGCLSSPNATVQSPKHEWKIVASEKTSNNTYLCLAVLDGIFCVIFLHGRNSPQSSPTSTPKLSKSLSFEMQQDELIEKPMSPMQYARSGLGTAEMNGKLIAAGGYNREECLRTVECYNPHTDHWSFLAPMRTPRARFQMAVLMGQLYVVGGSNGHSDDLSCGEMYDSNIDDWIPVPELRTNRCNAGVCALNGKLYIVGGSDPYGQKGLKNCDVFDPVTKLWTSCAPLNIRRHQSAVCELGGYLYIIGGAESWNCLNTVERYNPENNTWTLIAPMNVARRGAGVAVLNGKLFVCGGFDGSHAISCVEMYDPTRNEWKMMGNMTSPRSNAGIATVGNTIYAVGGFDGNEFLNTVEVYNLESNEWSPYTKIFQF
UniProt O95373, whole entry, looked up: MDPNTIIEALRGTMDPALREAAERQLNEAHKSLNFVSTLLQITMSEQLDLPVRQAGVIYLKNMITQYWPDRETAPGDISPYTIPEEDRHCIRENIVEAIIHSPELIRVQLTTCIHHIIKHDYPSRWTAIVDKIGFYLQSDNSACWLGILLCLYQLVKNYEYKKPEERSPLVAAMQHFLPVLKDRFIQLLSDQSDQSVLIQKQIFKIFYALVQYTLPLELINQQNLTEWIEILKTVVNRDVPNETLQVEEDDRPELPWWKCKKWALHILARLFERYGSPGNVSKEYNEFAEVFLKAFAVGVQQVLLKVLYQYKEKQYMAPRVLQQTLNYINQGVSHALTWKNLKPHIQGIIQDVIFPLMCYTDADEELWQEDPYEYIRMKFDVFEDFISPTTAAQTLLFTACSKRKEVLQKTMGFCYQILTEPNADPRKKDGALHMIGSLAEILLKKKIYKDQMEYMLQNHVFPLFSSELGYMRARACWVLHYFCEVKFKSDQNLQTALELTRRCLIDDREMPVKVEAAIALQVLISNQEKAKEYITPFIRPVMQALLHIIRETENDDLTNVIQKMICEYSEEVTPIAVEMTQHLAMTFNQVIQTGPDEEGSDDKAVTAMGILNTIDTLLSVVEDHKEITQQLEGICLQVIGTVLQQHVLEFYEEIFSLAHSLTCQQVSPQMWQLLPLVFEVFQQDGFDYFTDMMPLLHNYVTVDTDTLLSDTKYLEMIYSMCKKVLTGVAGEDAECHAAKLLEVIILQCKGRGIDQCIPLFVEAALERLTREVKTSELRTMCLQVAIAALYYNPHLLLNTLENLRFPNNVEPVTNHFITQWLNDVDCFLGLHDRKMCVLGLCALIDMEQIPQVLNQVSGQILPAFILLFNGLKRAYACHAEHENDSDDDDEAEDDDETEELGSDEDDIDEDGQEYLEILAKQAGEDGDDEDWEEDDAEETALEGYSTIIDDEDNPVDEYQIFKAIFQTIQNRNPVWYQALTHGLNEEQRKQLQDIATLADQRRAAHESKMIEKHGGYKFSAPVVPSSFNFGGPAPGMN
UniProt Q9ULR0: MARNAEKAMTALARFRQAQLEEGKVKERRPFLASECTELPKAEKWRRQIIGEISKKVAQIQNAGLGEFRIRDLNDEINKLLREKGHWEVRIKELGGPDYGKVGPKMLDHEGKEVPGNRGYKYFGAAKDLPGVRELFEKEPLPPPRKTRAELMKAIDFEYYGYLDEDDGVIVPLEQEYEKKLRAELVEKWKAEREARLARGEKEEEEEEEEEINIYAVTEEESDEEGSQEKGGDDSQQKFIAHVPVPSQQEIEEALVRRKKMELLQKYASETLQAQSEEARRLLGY

Assays:
Assay in all cases: log2 fold change, soluble protein after heating vs DMSO (PISA); higher = thermal stabilisation; K562 lysate, 10 uM; active = over 0.2 and 3.5 SD of the protein, either way, in both replicates (recomputed)
[1] = compound: CS(=O)(=O)CCNCc1ccc(-c2ccc3ncnc(Nc4ccc(OCc5cccc(F)c5)c(Cl)c4)c3c2)o1 [lapatinib]
Summary of the method: (§1)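 To prepare the extract, K562 pellets were dounce-homogenised in PBS pH 7.4 with 1 mM MgCl2, giving crude material at 1 mg/mL protein. This was treated with 10 μM compound for 30 min, then heated in aliquots for 3 min over 48°C-58°C before pooling and addition of NP-40 to 0.5% at 4°C. Centrifugation at 21,000xg for 90 min left soluble protein in the supernatant, which TMTpro 16plex LC-MS/MS quantified with equalised channel sums. Results are log-two fold changes in thermal stability compared with solvent controls, from duplicates.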

[2] = compound: CS(=O)(=O)N1CCN(Cc2cc3nc(-c4cccc5[nH]ncc45)nc(N4CCOCC4)c3s2)CC1 [pictilisib]
Summary of the method: as §1

[3] = compound: C[C@@H](Oc1cc(-c2cnn(C3CCNCC3)c2)cnc1N)c1c(Cl)ccc(F)c1Cl [crizotinib]
Summary of the method: as §1

[4] = compound: C[C@H](C1=CC=C(C=C1)C(=O)NC2=C3C=CNC3=NC=C2)N
Summary of the method: as §1

[5] = compound: C[C@H](Nc1ncnc2nc[nH]c12)c1cc2cccc(Cl)c2c(=O)n1-c1ccccc1 [duvelisib]
Summary of the method: as §1

[6] = compound: Cc1cc(Nc2cc(CN3CCOCC3)c3nc(C)c(Cc4ccc(Cl)cc4F)n3n2)n[nH]1 [gandotinib]
Summary of the method: as §1

[7] = compound: Cc1cc(Nc2cc(N3CCN(C)CC3)nc(Sc3ccc(NC(=O)C4CC4)cc3)n2)n[nH]1 [tozasertib]
Summary of the method: as §1

[8] = compound: Cc1ccc(-n2nc(C(C)(C)C)cc2NC(=O)Nc2ccc(OCCN3CCOCC3)c3ccccc23)cc1 [doramapimod]
Summary of the method: as §1

[9] = compound: Cc1ccc(NC(=O)c2ccc(CN3CC[C@H](N(C)C)C3)c(C(F)(F)F)c2)cc1Nc1nccc(-c2cncnc2)n1 [bafetinib]
Summary of the method: as §1

[10] = compound: Cc1cccc(CC(=O)N2CCc3c2ccc(-c2cn(C)c4ncnc(N)c24)c3F)n1
Summary of the method: as §1

[11] = compound: Cc1cn(-c2cc(NC(=O)c3ccc(C)c(Nc4nccc(-c5cccnc5)n4)c3)cc(C(F)(F)F)c2)cn1 [nilotinib]
Summary of the method: as §1

[12] = compound: Cc1nc(Nc2n[nH]c3c2CN(C(=O)N[C@H](CN(C)C)c2ccccc2)C3(C)C)c2sccc2n1
Summary of the method: as §1

[13] = compound: Cc1nc(Nc2ncc(C(=O)Nc3c(C)cccc3Cl)s2)cc(N2CCN(CCO)CC2)n1 [dasatinib]
Summary of the method: as §1

[14] = compound: Cc1ncc(-c2ccnc(Nc3ccc(S(C)(=O)=O)cc3)n2)n1C(C)C
Summary of the method: as §1

[15] = compound: Cn1cc(-c2ccc3c(c2)CCN3C(=O)Cc2cccc(C(F)(F)F)c2)c2c(N)ncnc21
Summary of the method: as §1

[16] = compound: Cn1cc(CNCC2CCN(c3ncc(C(=O)NO)cn3)CC2)c2ccccc21 [quisinostat]
Summary of the method: as §1

[17] = compound: Cn1cncc1[C@@](N)(c1ccc(Cl)cc1)c1ccc2c(c1)c(-c1cccc(Cl)c1)cc(=O)n2C [tipifarnib]
Summary of the method: as §1

[18] = compound: NC(=O)Nc1cc(-c2cccc(F)c2)sc1C(=O)N[C@H]1CCCNC1
Summary of the method: as §1

[19] = compound: NC(=O)c1cnc(N[C@@H]2CCCC[C@@H]2N)nc1Nc1cccc(-n2nccn2)c1
Summary of the method: as §1

[20] = compound: NC1(c2ccc(-c3nc4ccn5c(=O)[nH]nc5c4cc3-c3ccccc3)cc2)CCC1
Summary of the method: as §1

Measured: log2 fold change

IRAK4 (UniProt Q9NWZ3)
inactive: [1] -0.021 | [2] -0.018 | [3] 0.175 | [4] 0.012 | [5] 0.026 | [6] -0.082 | [7] 0 | [8] 0.011 | [9] -0.013 | [10] 0.012 | [11] -0.115 | [12] 0.065 | [13] 0.051 | [14] -0.012 | [15] 0.023 | [16] -0.066 | [17] -0.044 | [19] 0.028 | [20] 0
active: [18] 0.413

ITGB1 (UniProt P05556)
inactive: [1] -0.009 | [2] -0.018 | [3] -0.002 | [4] -0.032 | [5] -0.009 | [6] 0.012 | [7] -0.005 | [8] -0.016 | [9] 0.008 | [10] 0.006 | [11] 0.029 | [12] -0.006 | [13] 0.058 | [14] -0.006 | [15] -0.04 | [16] -0.006 | [17] 0.008 | [18] -0.002 | [19] -0.009 | [20] -0.005

JAGN1 (UniProt Q8N5M9)
inactive: [1] -0.029 | [2] 0 | [3] -0.004 | [4] -0.073 | [5] 0.008 | [6] -0.011 | [7] -0.09 | [8] -0.041 | [9] -0.029 | [10] -0.008 | [11] 0.017 | [12] 0.046 | [13] -0.036 | [14] -0.048 | [15] 0.082 | [16] 0.055 | [17] -0.002 | [18] 0.003 | [19] -0.035 | [20] 0.015

KCTD9 (UniProt Q7L273)
inactive: [1] -0.003 | [2] -0.025 | [3] 0.051 | [4] -0.036 | [5] 0.019 | [6] 0.036 | [7] 0.057 | [8] -0.035 | [9] 0.045 | [10] 0.035 | [11] 0.061 | [12] -0.035 | [13] -0.05 | [14] 0.02 | [15] -0.009 | [16] 0.025 | [17] 0.054 | [18] -0.003 | [19] -0.02 | [20] 0.091

JPT2 isoform 3 (UniProt Q9H910)
inactive: [1] -0.001 | [2] 0.029 | [3] 0.032 | [4] 0.029 | [5] -0.02 | [6] 0.031 | [7] -0.006 | [8] -0.037 | [9] -0.017 | [10] -0.033 | [11] -0.007 | [12] 0.023 | [13] -0.007 | [14] 0.005 | [15] -0.033 | [16] -0.014 | [17] 0.078 | [18] -0.035 | [19] -0.03 | [20] -0.005

ITSN2 (UniProt Q9NZM3)
inactive: [1] 0.002 | [2] -0.09 | [3] -0.014 | [4] -0.012 | [5] 0.014 | [6] -0.089 | [7] 0.012 | [8] 0.026 | [9] -0.035 | [10] 0.001 | [11] 0.016 | [12] -0.026 | [13] -0.069 | [14] -0.043 | [15] -0.011 | [16] -0.046 | [17] -0.024 | [18] 0.031 | [19] 0.051 | [20] 0.046

INTS2 (UniProt Q9H0H0)
inactive: [1] 0.013 | [2] -0.014 | [3] -0.05 | [4] 0.046 | [5] -0.05 | [6] -0.119 | [7] 0.021 | [8] 0.046 | [9] -0.245 | [10] 0.085 | [11] 0.035 | [12] 0.001 | [13] -0.114 | [14] -0.009 | [15] 0.068 | [16] -0.004 | [17] 0.094 | [18] 0.033 | [19] -0.136 | [20] -0.096

KAT8 (UniProt Q9H7Z6)
inactive: [1] 0.01 | [2] -0.056 | [3] -0.012 | [4] -0.02 | [5] 0.011 | [6] -0.029 | [7] 0.045 | [8] 0.055 | [9] -0.014 | [10] -0.037 | [11] -0.034 | [12] 0.028 | [13] 0.037 | [14] -0.008 | [15] -0.034 | [16] -0.104 | [17] -0.029 | [18] 0.018 | [19] 0.01 | [20] 0.026

IVNS1ABP (UniProt Q9Y6Y0)
inactive: [1] 0.002 | [2] -0.059 | [3] -0.019 | [4] -0.022 | [5] 0.008 | [6] 0.005 | [7] -0.025 | [8] 0.023 | [9] 0.03 | [10] 0.041 | [11] 0.041 | [12] -0.024 | [13] 0.011 | [14] -0.048 | [15] -0.024 | [16] 0.004 | [17] -0.052 | [18] 0.069 | [19] 0.014 | [20] -0.01

ITFG1 (UniProt Q8TB96)
inactive: [1] 0.025 | [2] -0.101 | [3] -0.033 | [4] -0.009 | [5] -0.047 | [6] -0.015 | [7] -0.025 | [8] -0.054 | [9] -0.089 | [10] 0.023 | [11] -0.006 | [12] -0.066 | [13] -0.013 | [14] 0.036 | [15] 0.01 | [16] 0.039 | [17] -0.015 | [18] 0.041 | [19] 0.057 | [20] 0.002

IP6K1 (UniProt Q92551)
inactive: [1] 0.026 | [2] 0.11 | [3] -0.02 | [4] -0.026 | [5] 0.031 | [6] 0.051 | [7] 0.095 | [8] 0.088 | [9] -0.004 | [10] 0.063 | [11] -0.049 | [12] -0.028 | [13] -0.009 | [14] 0.061 | [15] 0.021 | [16] -0.071 | [17] -0.04 | [18] 0.075 | [19] -0.005 | [20] 0.032

IPO7 (UniProt O95373)
inactive: [1] -0.026 | [2] -0.012 | [3] -0.03 | [4] -0.115 | [5] 0.038 | [6] 0.061 | [7] -0.027 | [8] 0.008 | [9] -0.031 | [10] 0.111 | [11] -0.009 | [12] -0.013 | [13] -0.015 | [14] 0 | [15] -0.016 | [16] -0.054 | [17] -0.019 | [18] 0.027 | [19] -0.006 | [20] -0.021

IST1 (UniProt P53990)
inactive: [1] -0.029 | [2] 0.013 | [3] 0.023 | [4] 0 | [5] -0.004 | [6] -0.021 | [7] 0.036 | [8] 0.025 | [9] -0.013 | [10] -0.023 | [11] -0.004 | [12] -0.037 | [13] -0.035 | [14] 0.008 | [15] 0.021 | [16] 0.027 | [17] 0.011 | [18] -0.032 | [19] 0 | [20] 0.011

ISY1 isoform 1 (UniProt Q9ULR0)
inactive: [1] -0.033 | [2] 0.011 | [3] 0.01 | [4] -0.022 | [5] 0.019 | [6] 0.078 | [7] -0.035 | [8] 0.016 | [9] -0.013 | [10] 0.016 | [11] 0.012 | [12] 0.026 | [13] 0.002 | [14] -0.024 | [15] -0.082 | [16] -0.036 | [17] -0.018 | [18] 0.014 | [19] -0.012 | [20] -0.01

Two entries drawn at random from those above:
ITGB1 (UniProt P05556)
inactive: [1] -0.009 | [2] -0.018 | [3] -0.002 | [4] -0.032 | [5] -0.009 | [6] 0.012 | [7] -0.005 | [8] -0.016 | [9] 0.008 | [10] 0.006 | [11] 0.029 | [12] -0.006 | [13] 0.058 | [14] -0.006 | [15] -0.04 | [16] -0.006 | [17] 0.008 | [18] -0.002 | [19] -0.009 | [20] -0.005

KCTD9 (UniProt Q7L273)
inactive: [1] -0.003 | [2] -0.025 | [3] 0.051 | [4] -0.036 | [5] 0.019 | [6] 0.036 | [7] 0.057 | [8] -0.035 | [9] 0.045 | [10] 0.035 | [11] 0.061 | [12] -0.035 | [13] -0.05 | [14] 0.02 | [15] -0.009 | [16] 0.025 | [17] 0.054 | [18] -0.003 | [19] -0.02 | [20] 0.091

(continued)

ISCA2 (UniProt Q86U28)
inactive: [1] 0.036 | [2] -0.035 | [3] 0.005 | [4] 0.009 | [5] 0.022 | [6] 0.063 | [7] 0.1 | [8] 0.032 | [9] 0.029 | [10] 0.022 | [11] 0.013 | [12] 0.061 | [13] 0.012 | [14] -0.079 | [15] -0.05 | [16] 0.001 | [17] 0.224 | [18] -0.041 | [19] -0.039 | [20] 0.071

ITGA5 (UniProt P08648)
inactive: [1] -0.011 | [2] -0.022 | [3] 0.031 | [4] 0 | [5] 0.003 | [6] 0.017 | [7] -0.028 | [8] -0.017 | [9] -0.006 | [10] -0.011 | [11] -0.012 | [12] -0.023 | [13] 0.008 | [14] 0.002 | [15] -0.018 | [16] -0.035 | [17] -0.032 | [18] 0.021 | [19] -0.001 | [20] 0.003
